Assay results as given in US20110038802A1, “METHOD OF DETERMINING ALANINE TRANSAMINASE (ALT) ACTIVITY BY 13C-MR DETECTION USING HYPERPOLARISED 13C-PYRUVATE” (priority 2008, published 2011).

Test system: alanine transaminase (ALT)
Assay: 3D-13C-MR spectroscopic imaging of liver of normal and fasted rats after injection of hyperpolarised 13C-pyruvate
Assay type: in vivo, rat
Settings: averaged over liver voxels, Mann-Whitney Rank-Sum test
Procedure: Two groups of rats were included in this study, to investigate liver metabolism both in fasted and non-fasted rats. Non-fasted rates were allowed to feed freely while fasted rats had their food removed about 24 hrs before MR-detection.
A catheter was introduced into the tail vein, and rats were then placed in MR scanner.
3 ml of the imaging medium as prepared in Example 1 was injected over 12 s via the tail vein catheter into the rat.
A home-built dual tuned ^1H/^13C RF coil was fit over the rat abdomen, localising signal from the liver. Rats were positioned in a 3 T horizontal bore GE MR scanner.
Lactate area to total carbon area and alanine area to total carbon area were calculated for each voxel and then averaged over all liver voxels to derive the test statistics average lactate to total carbon ratio and average alanine to total carbon ratio.

SMILES: CC(=O)C(=O)O [^13C1-pyruvate, sodium ^13C1-pyruvate]
- alanine to total carbon area, normal versus fasted groups (P<0.01): statistically significant difference
- lactate to total carbon area, normal versus fasted groups (P=0.42): no statistically significant difference
